Test results reported in PubChem BioAssay AID504834 (National Center for Advancing Translational Sciences (NCATS), 2011).
Out of some 320,000 compounds screened, about 22,000 (6.9%) were called active. Inconclusive means that the source gave no clear call. Such entries were picked first, then a sample of the others. Calls follow the shape of the dose curve; as a rule, active = well fitted inhibition curve with a large enough effect; inconclusive = small, poorly fitted or top-dose-only effect, or another doubt; inactive = no such curve, though single readings can be large or run the other way. A potency beside an inconclusive call is a rough fit, not a confirmed value. Where a SMILES comes first, the peptide text is derived from it. The star is where a group is joined. Cbz = O=C(OCc1ccccc1)*
% is scaled to controls: 0 for no effect and ±100 for the full control effect; potency is read from the fitted curve at half-maximal effect.

Experiment: Primary qHTS for delayed death inhibitors of the malarial parasite plastid, 96 hour incubation
Conditions: P. falciparum luciferase reporter growth; series mostly up to 28.7 µM
Outline: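 96 h incubation, 37 C, 5% CO2, of luciferase-reporter P. falciparum-infected RBCs (2% hematocrit, 0.05% parasitemia final) with test compounds; endpoint luminescence.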
With `Cc1cccc(-c2nc(S(=O)(=O)c3ccc(F)cc3)c(NCCCN3CCOCC3)o2)c1` the Potency was active: 13.1 µM.
In the case of `CCCCN(C)C(=S)Nc1ccc2nc(N3CCN(CC)CC3)cc(C)c2c1`, the Potency is reported as inconclusive: 14.7 µM [inhibitor, single point].
With `CO/C=C/C#CC1(O)CCN(C)CC1` the Potency was “inactive”.
For `CC(/C=C/c1ccccc1)=N/NC(=O)Cn1nnc(N)n1`, the Potency was “inactive”.
In the case of `CCOC(=O)c1c(/N=C/C2C(=O)NC(=O)NC2=O)sc2c1CCC2`, the activity change, negative = inhibition is reported as inactive: 61.6% [at 5.75 µM].
In the case of `CCC(=O)NC(Nc1sc2c(c1C(=O)OC)CCC2)C(Cl)(Cl)Cl` (centres undefined), the Potency is reported as inconclusive: 18.5 µM [inhibitor, single point].
With `O=C(c1ccc2c(=O)n3c(nc2c1)CCCCC3)N1CCN(c2ccccc2F)CC1` the Potency was inconclusive: 5.22 µM [inhibitor, partial curve, poor fit].
In the case of `Cc1cc(OCCCn2ccnc2)ccc1[N+](=O)[O-]`, the Potency is reported as inconclusive: 11.7 µM [inhibitor, partial curve, poor fit].
With `CC(=O)N1CCSc2ccc(S(=O)(=O)N3CCC(C)CC3)cc21` the Potency was inconclusive: 11.7 µM [inhibitor, single point].
In the case of `O=C(CN(C(=O)Cn1nnc(-c2ccccc2F)n1)c1cccc2c1CCCC2)NCc1ccccc1`, the Potency is reported as inconclusive: 0.037 µM [inhibitor, full curve, poor fit].
In the case of `CC(=O)c1c(C)[nH]c(C(=O)OCC(=O)N2CC(C)OC(C)C2)c1C` (centres undefined), the Potency is reported as “inactive”.
With `COc1cccc(N(CC(=O)NC2CCCC2)C(=O)CCC(=O)Nc2cc(C)on2)c1` the Potency was inconclusive: 9.28 µM [inhibitor, partial curve, poor fit].
With `COc1ccccc1OCCNc1ccc(S(=O)(=O)N2CCCC2)cn1` the Potency was “inactive”.
With `O=C(c1cccnc1)N1CCC(Oc2ccc(C(=O)N3CCCC(O)C3)cc2)CC1` (centres undefined) the Potency was inconclusive: 16.5 µM [inhibitor, single point].
With `Cc1ccc(S(=O)(=O)c2cc3c(=O)n4cccc(C)c4nc3n(CC3CCCO3)c2=N)cc1C` (centres undefined) the Potency was inconclusive: 9.28 µM [inhibitor, single point].
In the case of `O=C(Nc1ccc(-n2cnnn2)cc1)C(c1ccccc1)c1ccccc1`, the Potency is reported as “inactive”.
For `Cc1ccc(NC(=O)c2cc3ccccc3oc2=N)cc1`, the Potency was “inactive”.
In the case of `COc1cc(CCC(O)CC(=O)CCc2ccccc2)ccc1O` (centres undefined), the Potency is reported as “inactive”.
For `CCN(CC)CCOC(=O)c1ccc(NC(=O)c2cn(-c3ccccc3)nc2-c2cccs2)cc1`, the Potency was inconclusive: 2.08 µM [inhibitor, full curve, poor fit].
With `CCn1ncc(Br)c1C(=O)NC1CCCCCCC1` the Potency was inconclusive: 14.7 µM [inhibitor, partial curve, poor fit].
With `CCC(=O)Oc1ccc(C(=O)Nc2cccc(C(=O)NCC(C)C)c2)cc1` the Potency was inconclusive: 13.1 µM [inhibitor, single point].
With `COc1cccc(-c2cc(C(=O)NCC3CCCO3)c3cc(Br)cc(C)c3n2)c1` (centres undefined) the Potency was inconclusive: 14.7 µM [inhibitor, partial curve, poor fit].
For `Cc1c(Cl)c([N+](=O)[O-])nn1CCCC(=O)Nc1cccc(Cl)c1Cl`, the Potency was inconclusive: 10.4 µM [inhibitor, single point].
For `COc1ccc(S(=O)(=O)N2CCC(C(=O)Nc3cc(Cl)ccc3N3CCOCC3)CC2)cc1OC`, the Potency was inconclusive: 7.38 µM [inhibitor, partial curve, poor fit].
In the case of `Cc1ccc(-c2cc(C(F)F)n3ncc(C(=O)N4CCCc5ccccc54)c3n2)cc1`, the Potency is reported as “inactive”.
For `CNc1nc(SCC(=O)Nc2ccccc2)nc(N2CCOCC2)n1`, the Potency was “inactive”.
With `CCCCC[C@H]1CN(C2CCCCC2)C(=O)[C@@H]1CC(=O)NCc1ccc(OC)cc1` the Potency was inconclusive: 2.08 µM [inhibitor, partial curve, poor fit].
In the case of `COC(=O)[C@@]1(Cc2ccc(OC)cc2)[C@H]2c3cc(C(=O)N(C)C)n(Cc4ccc(OC(F)(F)F)cc4)c3C[C@H]2CN1C(=O)c1ccccc1`, the Potency is reported as active: 3.29 µM.
In the case of `O=S(=O)(O)Oc1c[nH]c2ccccc12`, the Potency is reported as inconclusive: 13.1 µM [inhibitor, single point].
In the case of `COc1cccc(-c2sc3ccc(OC)cc3c2C#CC(C)(C)O)c1`, the Potency is reported as inconclusive: 16.5 µM [inhibitor, partial curve, poor fit].
In the case of `Cc1cc(C(F)(F)F)n(-c2nc(C(=O)O)cs2)n1`, the Potency is reported as inconclusive: 0.522 µM [inhibitor, partial curve, poor fit].
In the case of `CCOc1ccc(NC(=O)CN(C)C(=O)c2ccc3c(c2)C(=O)N(CCC(C)C)C3=O)cc1OCC`, the Potency is reported as “inactive”.
For `O=C(COc1ccc(Br)cc1CO)Nc1ccccc1`, the Potency was “inactive”.
With `Fc1ccccc1CN1CCN(c2ncccn2)CC1` the Potency was “inactive”.
With `CC1CCCC(NC(=O)CN(C)CC(=O)Nc2ccc(F)cc2)C1C` (centres undefined) the Potency was “inactive”.
For `COc1cc2c(cc1NC(=O)/C=C/c1cc(OC)c(OC)c(OC)c1)oc1ccccc12`, the Potency was inconclusive: 18.5 µM [inhibitor, single point].
In the case of `Cc1ccc(-c2nnn(CC(=O)N(CC(=O)NC3CCCCC3)c3ccccc3F)n2)o1`, the Potency is reported as “inactive”.
For `O=C(Nc1ccccc1)c1cc([N+](=O)[O-])ccc1NCc1cccnc1`, the Potency was inconclusive: 10.4 µM [inhibitor, single point].
With `CCC(C)C(NC(=O)C(C)NC(=O)CNC(=O)CNC(=O)OCc1ccccc1)C(=O)OC` (centres undefined) (Cbz-GGAI-OMe; configuration not given here) the Potency was inconclusive: 11.7 µM [inhibitor, single point].
In the case of `CCC(CC)C(=O)c1c[nH]c(C(=O)N2CCN(c3ccccc3)CC2)c1`, the Potency is reported as “inactive”.
In the case of `O=C(COc1ccccc1Cc1ccccc1)Nc1cccnc1`, the Potency is reported as inconclusive: 7.38 µM [inhibitor, single point].
For `Cc1cc(C)n(Cc2ccc(Cl)cc2Cl)c(=O)c1S(=O)(=O)c1ccccc1`, the Potency was inconclusive: 6.57 µM [inhibitor, partial curve, poor fit].
With `Cc1noc(C)c1S(=O)(=O)N(C)CC(=O)NCc1ccccc1` the Potency was inconclusive: 10.4 µM [inhibitor, single point].
In the case of `N#C/C(=C1/CCCCCN1)c1nc2ccccc2[nH]1`, the Potency is reported as “inactive”.
For `CCc1ccc(C(=O)COC(=O)c2ccc(Cl)nc2)cc1`, the Potency was “inactive”.
For `C/C(=N\NC1=NCCN1)c1ccc(N)c([N+](=O)[O-])c1`, the Potency was inconclusive: 2.33 µM [inhibitor, full curve].
For `Fc1cc(Br)ccc1COc1ccc(-c2nnco2)cc1`, the Potency was “inactive”.
With `N#Cc1ccc2[nH]c(CO)c(-c3ccccc3)c2c1` the Potency was “inactive”.
For `COc1ccc(C(=O)Nc2ccc(NC(C)=O)cc2)cc1S(=O)(=O)N1CCCCC1C` (centres undefined), the Potency was inconclusive: 13.1 µM [inhibitor, partial curve].
For `CCOC(=O)C1C(=O)NC(N2CCN(Cc3ccccc3)CC2)=NC1c1ccccc1` (centres undefined), the Potency was inconclusive: 10.4 µM [inhibitor, single point].
With `CCC(C)N=C1CC(C)(C)CC(=O)/C1=C(/O)Cc1ccccc1` (centres undefined) the Potency was inconclusive: 10.4 µM [inhibitor, single point].
With `Cc1nc(-c2ccc(NC(=O)CC(C)C)cc2)cs1` the Potency was “inactive”.
In the case of `Cn1c(N)c(C(=O)COC(=O)/C=C/c2ccc(S(=O)(=O)N3CCOCC3)cc2)c(=O)n(C)c1=O`, the Potency is reported as inconclusive: 10.4 µM [inhibitor, partial curve, poor fit].
In the case of `Cc1ccc(NC(=O)CSCC(=O)Nc2ccccc2C(=O)NC2CC2)cc1`, the Potency is reported as “inactive”.
With `CN(C)S(=O)(=O)c1cccc(-c2nnc(SCc3ccc4c(c3)OCCO4)o2)c1` the Potency was inconclusive: 11.7 µM [inhibitor, partial curve, poor fit].
For `COc1ccc(C)cc1NC(=O)c1sc2nc(C)nc(N3CCOCC3)c2c1C`, the Potency was inconclusive: 13.1 µM [inhibitor, partial curve].
With `O=C(Cc1cccs1)N1CCN(S(=O)(=O)c2ccccc2)CC1` the Potency was active: 13.1 µM.
With `COCCN(C(=O)c1ccc(-c2ccc(Cl)cc2)o1)c1c(N)n(CC(C)C)c(=O)[nH]c1=O` the Potency was inconclusive: 18.5 µM [inhibitor, single point].
In the case of `CCCC[C@]12Cc3ccccc3C(O1)c1c(cc(-c3ccccc3)oc1=O)O2`, the Potency is reported as active: 1.51 µM.
With `CC#CC[N+](C)(C)CCCCCC` the Potency was inconclusive: 8.28 µM [inhibitor, partial curve, poor fit].
In the case of `COc1ccc(-c2cn3c(C)c(C(=O)N4CCN(c5ccccc5F)CC4)sc3n2)cc1`, the Potency is reported as inconclusive: 0.185 µM [inhibitor, full curve, poor fit].
For `COc1ccc(S(=O)(=O)NC(N)=NCCc2ccc(OC)c(OC)c2)cc1`, the Potency was inconclusive: 18.5 µM [inhibitor, partial curve, poor fit].
For `COC(=O)CCCC(=O)NC1CCCc2c1cnn2-c1ccc(F)cc1F` (centres undefined), the Potency was inconclusive: 18.5 µM [inhibitor, single point].
For `COc1ccc(NC(=O)CCCN2C(=O)C3CC=CCC3C2=O)cc1` (centres undefined), the Potency was active: 10.4 µM.
In the case of `COc1ccc(Nc2nc3[nH]c(=O)cc(O)c3s2)cc1`, the Potency is reported as inconclusive: 18.5 µM [inhibitor, single point].
With `CCCCNC(=S)Nc1ccc(-c2nc3ccc(C)cc3s2)cc1` the Potency was “inactive”.
In the case of `CC1=Nc2ccccc2N=C(NC(=O)CSC(=S)N2CCN(C)CC2)C1c1ccccc1` (centres undefined), the Potency is reported as inconclusive: 0.0928 µM [inhibitor, full curve, poor fit].
For `Cc1ccc(S(=O)(=O)CCC(=O)OCc2ccc(Cl)cc2)cc1`, the Potency was inconclusive: 18.5 µM [inhibitor, single point].
With `CCCCn1c(=O)c(CCC(=O)O)nc2ccccc21` the Potency was inconclusive: 11.7 µM [inhibitor, single point].
